This experiment has as its target α-tubulin (human). Kind of experiment: anti-Id2 immunoprecipitation from TIG-3 lysates, Western blot. (In general: Immunoblotting shows a protein as a band on a membrane.)

Results are given in words; binding and its absence hold for the method and conditions named.

In patent US20060121494A1 one finds binding data, which are given here for 1 molecule.

B1: Id2 protein (endogenous, human cells) (protein)
chain: MKAFSPVRSVRKNSLSDHSLGISRSKTPVDDPMSLLYNMNDCYSKLKELVPSIPQNKKVSKMEILQHLIDYILDLQIALDSHPTIVSLHHQRPGQNQRSRTTPLTTLNTDISILSLQASEFPSELMSNDSKALCG
As for B1, the binding result is on record as “no binding”.
